# The list shows a part of the results.
# By UniProt entry, the sequences of proteins in these tests, tags left out. Where a name states a change or a piece, a line headed by the entry shows the natural chain unless it says otherwise.
# UniProt Q9P2M4: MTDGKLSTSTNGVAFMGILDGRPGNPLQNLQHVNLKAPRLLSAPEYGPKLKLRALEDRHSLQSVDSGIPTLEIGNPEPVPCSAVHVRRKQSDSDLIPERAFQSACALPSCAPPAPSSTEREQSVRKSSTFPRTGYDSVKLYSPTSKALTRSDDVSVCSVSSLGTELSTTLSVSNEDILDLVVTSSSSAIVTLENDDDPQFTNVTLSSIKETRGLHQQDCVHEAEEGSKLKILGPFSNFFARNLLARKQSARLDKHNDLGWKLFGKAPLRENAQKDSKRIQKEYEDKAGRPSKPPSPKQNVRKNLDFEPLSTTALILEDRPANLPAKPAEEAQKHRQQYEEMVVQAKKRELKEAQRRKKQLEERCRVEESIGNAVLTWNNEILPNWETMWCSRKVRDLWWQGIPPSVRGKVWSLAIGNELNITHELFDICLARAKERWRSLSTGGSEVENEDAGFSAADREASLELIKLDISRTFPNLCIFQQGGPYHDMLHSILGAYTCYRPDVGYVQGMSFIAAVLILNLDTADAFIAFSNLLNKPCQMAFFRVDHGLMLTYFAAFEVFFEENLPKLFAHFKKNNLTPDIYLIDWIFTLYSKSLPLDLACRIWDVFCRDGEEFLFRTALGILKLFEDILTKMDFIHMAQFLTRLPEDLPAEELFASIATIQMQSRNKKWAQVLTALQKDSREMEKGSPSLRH
# UniProt Q99595: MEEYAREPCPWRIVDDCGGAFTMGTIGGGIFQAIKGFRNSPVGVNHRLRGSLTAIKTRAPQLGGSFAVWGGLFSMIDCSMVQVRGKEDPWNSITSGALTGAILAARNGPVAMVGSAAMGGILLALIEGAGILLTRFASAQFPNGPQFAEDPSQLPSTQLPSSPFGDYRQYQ
# UniProt Q8WUA7: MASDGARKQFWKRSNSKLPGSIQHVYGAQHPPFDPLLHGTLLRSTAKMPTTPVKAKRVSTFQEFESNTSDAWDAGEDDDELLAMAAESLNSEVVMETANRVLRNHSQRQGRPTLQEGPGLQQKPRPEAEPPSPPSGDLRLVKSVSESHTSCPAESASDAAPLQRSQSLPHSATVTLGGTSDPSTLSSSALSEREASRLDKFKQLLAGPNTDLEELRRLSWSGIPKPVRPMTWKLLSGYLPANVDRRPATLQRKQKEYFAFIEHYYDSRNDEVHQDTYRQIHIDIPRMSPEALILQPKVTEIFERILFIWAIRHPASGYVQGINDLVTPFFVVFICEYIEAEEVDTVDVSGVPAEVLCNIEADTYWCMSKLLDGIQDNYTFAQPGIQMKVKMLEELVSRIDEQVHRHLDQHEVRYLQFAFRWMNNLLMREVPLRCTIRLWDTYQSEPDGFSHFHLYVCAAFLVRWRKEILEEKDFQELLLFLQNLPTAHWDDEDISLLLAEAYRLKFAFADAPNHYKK
# UniProt B5MCY1: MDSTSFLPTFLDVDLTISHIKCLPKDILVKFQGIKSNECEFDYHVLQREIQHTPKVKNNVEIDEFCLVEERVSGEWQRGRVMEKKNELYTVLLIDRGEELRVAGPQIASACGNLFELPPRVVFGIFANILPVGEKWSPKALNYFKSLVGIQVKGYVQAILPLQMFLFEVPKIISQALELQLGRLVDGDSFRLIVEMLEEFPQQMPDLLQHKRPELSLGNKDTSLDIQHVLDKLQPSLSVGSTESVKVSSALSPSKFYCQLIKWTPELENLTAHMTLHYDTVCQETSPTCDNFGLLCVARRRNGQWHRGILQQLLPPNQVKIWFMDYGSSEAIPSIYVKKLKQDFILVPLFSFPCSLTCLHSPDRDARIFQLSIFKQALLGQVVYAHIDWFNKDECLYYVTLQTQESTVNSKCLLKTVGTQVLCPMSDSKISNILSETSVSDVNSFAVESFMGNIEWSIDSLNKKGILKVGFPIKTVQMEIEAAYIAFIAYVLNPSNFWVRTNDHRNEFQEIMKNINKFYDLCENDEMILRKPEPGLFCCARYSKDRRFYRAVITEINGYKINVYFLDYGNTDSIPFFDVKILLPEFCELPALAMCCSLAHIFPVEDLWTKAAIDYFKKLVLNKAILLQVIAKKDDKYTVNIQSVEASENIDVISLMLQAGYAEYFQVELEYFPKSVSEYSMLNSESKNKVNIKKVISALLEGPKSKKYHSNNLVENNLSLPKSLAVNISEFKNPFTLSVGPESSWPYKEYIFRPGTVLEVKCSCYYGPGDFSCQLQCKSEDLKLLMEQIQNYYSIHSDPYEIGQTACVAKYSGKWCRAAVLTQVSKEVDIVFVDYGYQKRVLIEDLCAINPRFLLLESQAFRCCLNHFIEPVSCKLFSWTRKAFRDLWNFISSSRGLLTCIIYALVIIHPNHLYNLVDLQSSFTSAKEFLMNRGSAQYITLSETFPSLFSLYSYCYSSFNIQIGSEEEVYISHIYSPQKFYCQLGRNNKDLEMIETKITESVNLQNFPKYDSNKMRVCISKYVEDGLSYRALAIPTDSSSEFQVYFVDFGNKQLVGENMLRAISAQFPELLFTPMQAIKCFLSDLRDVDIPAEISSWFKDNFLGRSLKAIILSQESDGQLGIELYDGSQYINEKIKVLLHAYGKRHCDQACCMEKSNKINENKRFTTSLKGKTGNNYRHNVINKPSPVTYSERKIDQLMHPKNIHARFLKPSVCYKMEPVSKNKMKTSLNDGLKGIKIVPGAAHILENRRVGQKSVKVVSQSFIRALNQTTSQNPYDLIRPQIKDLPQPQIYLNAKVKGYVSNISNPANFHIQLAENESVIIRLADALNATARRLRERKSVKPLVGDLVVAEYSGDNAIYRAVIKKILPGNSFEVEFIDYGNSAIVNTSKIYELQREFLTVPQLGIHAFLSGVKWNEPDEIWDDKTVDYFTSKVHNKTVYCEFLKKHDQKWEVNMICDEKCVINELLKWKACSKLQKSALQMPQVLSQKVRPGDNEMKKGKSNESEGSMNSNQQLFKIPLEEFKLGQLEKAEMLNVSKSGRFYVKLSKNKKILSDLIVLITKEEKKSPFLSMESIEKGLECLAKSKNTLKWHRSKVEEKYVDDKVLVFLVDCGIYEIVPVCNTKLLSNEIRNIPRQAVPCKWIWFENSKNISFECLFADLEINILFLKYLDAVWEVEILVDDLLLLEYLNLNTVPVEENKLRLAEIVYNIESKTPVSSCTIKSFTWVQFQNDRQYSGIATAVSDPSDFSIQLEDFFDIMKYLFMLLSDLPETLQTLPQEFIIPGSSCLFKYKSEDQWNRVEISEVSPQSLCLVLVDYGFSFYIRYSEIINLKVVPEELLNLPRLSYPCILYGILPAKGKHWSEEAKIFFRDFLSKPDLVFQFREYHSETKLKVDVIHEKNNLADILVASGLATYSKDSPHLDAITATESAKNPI
# UniProt Q15554: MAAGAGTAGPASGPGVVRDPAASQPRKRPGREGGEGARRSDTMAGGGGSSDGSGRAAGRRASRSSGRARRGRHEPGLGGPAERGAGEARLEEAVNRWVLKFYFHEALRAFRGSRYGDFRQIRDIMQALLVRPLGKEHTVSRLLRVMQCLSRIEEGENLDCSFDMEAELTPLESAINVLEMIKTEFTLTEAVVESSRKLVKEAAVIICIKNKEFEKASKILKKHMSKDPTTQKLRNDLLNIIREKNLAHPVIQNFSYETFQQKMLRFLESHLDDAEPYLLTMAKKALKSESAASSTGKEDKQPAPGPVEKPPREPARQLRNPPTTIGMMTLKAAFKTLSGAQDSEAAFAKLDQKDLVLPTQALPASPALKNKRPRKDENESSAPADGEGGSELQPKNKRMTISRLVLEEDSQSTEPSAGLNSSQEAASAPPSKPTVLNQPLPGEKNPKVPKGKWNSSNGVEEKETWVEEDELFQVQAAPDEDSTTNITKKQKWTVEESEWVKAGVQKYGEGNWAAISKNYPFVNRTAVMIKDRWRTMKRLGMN
# UniProt Q99081: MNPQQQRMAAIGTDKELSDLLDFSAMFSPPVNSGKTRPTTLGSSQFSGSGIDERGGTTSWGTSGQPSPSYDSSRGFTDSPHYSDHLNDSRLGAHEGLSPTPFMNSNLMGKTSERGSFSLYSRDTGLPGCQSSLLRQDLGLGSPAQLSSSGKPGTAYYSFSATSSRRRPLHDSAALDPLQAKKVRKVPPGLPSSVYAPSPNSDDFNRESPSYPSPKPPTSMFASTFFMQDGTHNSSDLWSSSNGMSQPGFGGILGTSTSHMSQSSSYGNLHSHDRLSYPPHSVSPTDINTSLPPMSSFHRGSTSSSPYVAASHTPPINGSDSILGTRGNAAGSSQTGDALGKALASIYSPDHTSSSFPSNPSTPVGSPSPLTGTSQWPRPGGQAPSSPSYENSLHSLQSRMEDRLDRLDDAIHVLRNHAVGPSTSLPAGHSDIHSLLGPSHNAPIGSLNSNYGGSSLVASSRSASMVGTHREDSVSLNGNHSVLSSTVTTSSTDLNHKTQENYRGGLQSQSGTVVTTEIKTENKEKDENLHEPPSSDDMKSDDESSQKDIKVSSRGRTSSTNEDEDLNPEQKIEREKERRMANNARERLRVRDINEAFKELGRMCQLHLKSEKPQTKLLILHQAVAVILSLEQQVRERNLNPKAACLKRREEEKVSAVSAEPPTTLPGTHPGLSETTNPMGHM
# UniProt O60907: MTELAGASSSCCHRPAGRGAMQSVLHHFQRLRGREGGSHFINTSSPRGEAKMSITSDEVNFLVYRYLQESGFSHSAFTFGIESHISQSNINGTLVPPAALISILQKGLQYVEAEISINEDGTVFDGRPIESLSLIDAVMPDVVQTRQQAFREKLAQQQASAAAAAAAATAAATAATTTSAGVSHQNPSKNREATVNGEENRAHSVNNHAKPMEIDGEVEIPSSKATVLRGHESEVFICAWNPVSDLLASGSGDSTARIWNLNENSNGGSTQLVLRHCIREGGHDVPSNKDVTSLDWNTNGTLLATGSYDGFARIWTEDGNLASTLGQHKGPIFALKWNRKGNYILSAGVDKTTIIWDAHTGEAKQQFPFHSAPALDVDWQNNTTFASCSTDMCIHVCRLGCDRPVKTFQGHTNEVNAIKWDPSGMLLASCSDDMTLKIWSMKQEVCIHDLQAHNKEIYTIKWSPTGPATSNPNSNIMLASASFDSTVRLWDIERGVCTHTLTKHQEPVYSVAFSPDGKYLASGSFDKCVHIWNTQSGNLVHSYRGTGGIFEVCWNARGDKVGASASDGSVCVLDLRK
# UniProt Q9HA65: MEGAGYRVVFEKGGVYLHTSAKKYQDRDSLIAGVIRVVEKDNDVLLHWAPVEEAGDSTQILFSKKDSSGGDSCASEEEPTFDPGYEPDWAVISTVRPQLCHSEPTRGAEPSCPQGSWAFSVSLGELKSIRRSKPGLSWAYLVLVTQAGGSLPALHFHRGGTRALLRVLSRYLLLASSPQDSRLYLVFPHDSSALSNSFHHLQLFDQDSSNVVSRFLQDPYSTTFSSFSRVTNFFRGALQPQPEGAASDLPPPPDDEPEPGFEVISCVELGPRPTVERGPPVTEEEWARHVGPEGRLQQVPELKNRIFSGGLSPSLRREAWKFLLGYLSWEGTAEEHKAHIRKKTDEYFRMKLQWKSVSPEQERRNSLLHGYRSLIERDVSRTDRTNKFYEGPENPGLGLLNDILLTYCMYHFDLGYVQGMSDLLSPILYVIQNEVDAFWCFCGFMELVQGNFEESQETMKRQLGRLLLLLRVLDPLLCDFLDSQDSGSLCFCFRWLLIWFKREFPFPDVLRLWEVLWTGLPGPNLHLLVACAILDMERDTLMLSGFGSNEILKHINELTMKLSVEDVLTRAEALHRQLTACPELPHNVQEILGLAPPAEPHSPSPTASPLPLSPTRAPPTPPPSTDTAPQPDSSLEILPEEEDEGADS
# UniProt P29401: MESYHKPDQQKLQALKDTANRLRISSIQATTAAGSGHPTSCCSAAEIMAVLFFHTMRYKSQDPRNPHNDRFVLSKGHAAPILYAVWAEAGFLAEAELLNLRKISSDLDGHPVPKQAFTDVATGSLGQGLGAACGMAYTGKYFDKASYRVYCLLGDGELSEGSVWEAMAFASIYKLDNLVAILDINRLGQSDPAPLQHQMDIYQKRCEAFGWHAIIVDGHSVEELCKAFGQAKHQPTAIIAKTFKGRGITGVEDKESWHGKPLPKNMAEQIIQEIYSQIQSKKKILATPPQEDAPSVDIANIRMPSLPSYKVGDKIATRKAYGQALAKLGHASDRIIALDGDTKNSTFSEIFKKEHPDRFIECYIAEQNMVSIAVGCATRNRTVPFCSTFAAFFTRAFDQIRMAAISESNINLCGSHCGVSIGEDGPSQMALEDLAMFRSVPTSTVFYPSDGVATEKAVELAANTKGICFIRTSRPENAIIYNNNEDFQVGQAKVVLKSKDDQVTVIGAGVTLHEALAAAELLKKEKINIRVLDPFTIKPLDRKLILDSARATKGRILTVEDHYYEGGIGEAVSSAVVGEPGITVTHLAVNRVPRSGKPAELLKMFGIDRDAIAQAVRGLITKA
# UniProt P62380: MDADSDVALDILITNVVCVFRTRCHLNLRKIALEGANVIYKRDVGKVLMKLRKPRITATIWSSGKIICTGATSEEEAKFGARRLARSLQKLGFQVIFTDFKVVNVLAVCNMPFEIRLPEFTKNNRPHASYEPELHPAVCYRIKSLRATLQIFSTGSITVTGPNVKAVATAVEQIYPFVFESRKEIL
# Columns and labels:
# Test in all cases: log2 fold change, soluble protein after heating vs DMSO (PISA); higher = thermal stabilisation; K562 cells, 10 uM, 30 min; active = over 0.2 and 3.5 SD of the protein, either way, in both replicates (recomputed)
# [1] = compound: NC(=O)Nc1cc(-c2cccc(F)c2)sc1C(=O)N[C@H]1CCCNC1
# Outline: (§1)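 Soluble protein was quantified by TMTpro 16plex LC-MS/MS after channel sums were equalised. It was obtained as the supernatant after 21,000xg for 90 min from pooled aliquots of K562 cells (2×10^6 cells/mL, 10 μM compound, 30 min) heated for 3 min across 48°C-58°C and extracted in PBS with 0.5% NP-40 at 4°C. Thermal stability values are relative to control samples and come from duplicates. They are given as log2 fold changes.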
# [2] = compound: NC(=O)c1cnc(N[C@@H]2CCCC[C@@H]2N)nc1Nc1cccc(-n2nccn2)c1
# Outline: as §1
# [3] = compound: NC1(c2ccc(-c3nc4ccn5c(=O)[nH]nc5c4cc3-c3ccccc3)cc2)CCC1
# Outline: as §1
# [4] = compound: NCC(=O)Nc1ccc(-n2nc(C(F)(F)F)cc2-c2ccc3c(ccc4ccccc43)c2)cc1
# Outline: as §1
# [5] = compound: Nc1ccccc1NC(=O)c1ccc(CNC(=O)OCc2cccnc2)cc1 [entinostat]
# Outline: as §1
# [6] = compound: O=C(CCCCCCC(=O)Nc1ccccc1)NO [vorinostat]
# Outline: as §1
# [7] = compound: O=C(CCCCCCNC(=O)c1cnc(N(c2ccccc2)c2ccccc2Cl)nc1)NO [citarinostat]
# Outline: as §1
# [8] = compound: O=C(O)c1ccc2c(c1)nc(Nc1cccc(Cl)c1)c1ccncc12 [silmitasertib]
# Outline: as §1
# [9] = compound: O=C1NC(=O)C(c2cnc3ccccn23)=C1c1cn2c3c(cc(F)cc13)CN(C(=O)N1CCCCC1)CC2
# Outline: as §1
# [10] = compound: c1cc(OCCN2CCCCC2)cc(-c2n[nH]c3ccc(-c4nnc[nH]4)cc23)c1
# Outline: as §1
# [11] = compound: c1cn2cc(-c3ccc4cn[nH]c4c3)nc(Nc3ccc(N4CCOCC4)cc3)c2n1 [entospletinib]
# Outline: as §1
Target,log2 fold change [1],log2 fold change [2],log2 fold change [3],log2 fold change [4],log2 fold change [5],log2 fold change [6],log2 fold change [7],log2 fold change [8],log2 fold change [9],log2 fold change [10],log2 fold change [11]
TICAM2 isoform 2 (UniProt Q86XR7),inactive: 0.008,inactive: -0.001,inactive: -0.017,inactive: 0.027,inactive: -0.001,inactive: 0.019,inactive: 0.059,inactive: -0.003,inactive: 0.144,inactive: -0.025,inactive: -0.04
TBL1XR1 (UniProt Q9BZK7),inactive: 0.06,inactive: 0.057,inactive: 0.03,inactive: -0.027,inactive: -0.041,inactive: -0.022,inactive: 0,inactive: -0.028,inactive: 0.123,inactive: -0.048,inactive: -0.019
TENT5C (UniProt Q5VWP2),inactive: -0.095,,inactive: 0.006,inactive: -0.32,inactive: 0.035,inactive: -0.104,inactive: 0.144,inactive: -0.038,,inactive: -0.133,
TBC1D14 (UniProt Q9P2M4),inactive: -0.545,inactive: -0.033,inactive: 0.013,inactive: 0.091,inactive: 0.306,inactive: -0.104,,inactive: 0.144,inactive: 0.098,,
TLCD1 (UniProt Q96CP7),inactive: -0.005,inactive: -0.088,inactive: -0.061,inactive: -0.105,inactive: 0.031,inactive: -0.018,inactive: -0.067,inactive: 0.056,inactive: -0.115,inactive: -0.073,inactive: 0.037
TFPI (UniProt P10646),inactive: -0.021,,inactive: 0.13,inactive: -0.003,inactive: -0.047,inactive: -0.158,,inactive: 0.127,inactive: -0.009,,
TFDP1 (UniProt Q14186),inactive: 0.102,inactive: -0.136,inactive: -0.012,inactive: -0.083,inactive: -0.094,inactive: 0.123,inactive: 0.022,inactive: 0.101,inactive: 0.075,inactive: -0.12,inactive: 0.105
TIMM17A (UniProt Q99595),inactive: 0.019,inactive: 0.013,inactive: -0.057,inactive: 0.062,inactive: 0.012,inactive: -0.03,inactive: 0.023,inactive: 0,inactive: 0.036,inactive: -0.064,inactive: -0.049
TCOF1 isoform 6 (UniProt Q13428),inactive: 0.281,,inactive: -0.07,inactive: 0.077,inactive: 0.23,,inactive: 0.18,inactive: 0.028,,inactive: -0.042,
TGOLN2 isoform 7 (UniProt O43493),inactive: 0.005,inactive: 0.005,inactive: 0.049,inactive: 0.01,inactive: -0.021,inactive: -0.045,inactive: 0,inactive: 0.02,inactive: -0.019,inactive: -0.036,inactive: 0.023
TBC1D22A (UniProt Q8WUA7),inactive: -0.025,inactive: -0.005,inactive: -0.079,inactive: -0.001,inactive: 0.057,inactive: 0.196,inactive: -0.034,inactive: -0.004,inactive: -0.004,inactive: -0.027,inactive: -0.001
TEX264 (UniProt Q9Y6I9),active: 0.548,inactive: -0.001,inactive: 0.215,inactive: -0.033,inactive: 0.006,inactive: -0.012,inactive: -0.054,inactive: 0.02,inactive: -0.093,inactive: 0.515,active: 0.601
TCP1 (UniProt P17987),inactive: 0.023,inactive: 0.007,inactive: 0.011,inactive: 0.045,inactive: -0.005,inactive: 0.03,inactive: 0.004,inactive: -0.034,inactive: -0.007,inactive: -0.041,inactive: -0.035
"TKT, A0A0B4J1R6",inactive: -0.211,inactive: -0.31,inactive: -0.033,inactive: -0.444,inactive: -0.071,,inactive: -0.072,inactive: 0.233,inactive: 0.118,inactive: -0.461,inactive: 0.033
TDRD15 (UniProt B5MCY1),inactive: -0.552,,inactive: 0.08,inactive: -0.347,inactive: -0.272,inactive: -0.119,inactive: -0.537,inactive: 0.061,,inactive: -0.169,inactive: 0.313
TERF2 (UniProt Q15554),inactive: -0.071,inactive: -0.026,inactive: 0.142,inactive: 0.092,inactive: 0.078,inactive: 0.098,inactive: 0.018,inactive: 0.206,inactive: 0.061,inactive: -0.121,inactive: 0.078

Target,log2 fold change [1],log2 fold change [2],log2 fold change [3],log2 fold change [4],log2 fold change [5],log2 fold change [6],log2 fold change [7],log2 fold change [8],log2 fold change [9],log2 fold change [10],log2 fold change [11]
THUMPD3 (UniProt Q9BV44),inactive: 0.026,inactive: -0.04,inactive: -0.033,inactive: 0.024,inactive: 0.017,inactive: 0.028,inactive: 0.033,inactive: 0.008,inactive: -0.055,inactive: -0.012,inactive: -0.011
TLCD3A (UniProt Q8TBR7),inactive: 0.008,inactive: -0.044,,inactive: 0.003,inactive: -0.023,inactive: -0.051,inactive: 0.014,,,inactive: 0,inactive: -0.053
TK1 (UniProt K7ERV3),inactive: -0.127,inactive: -0.054,inactive: -0.005,inactive: 0.022,inactive: -0.071,inactive: -0.003,,inactive: -0.039,inactive: -0.116,,
THOC1 (UniProt Q96FV9),inactive: -0.008,inactive: -0.041,inactive: -0.054,inactive: -0.119,inactive: 0.019,inactive: 0.192,inactive: -0.026,inactive: 0.007,inactive: 0.075,inactive: -0.12,inactive: 0.073
TIMMDC1 (UniProt Q9NPL8),inactive: 0.03,inactive: 0.013,inactive: 0.011,inactive: 0.049,inactive: 0.009,inactive: -0.099,inactive: 0.011,inactive: -0.042,inactive: -0.025,inactive: 0.003,inactive: 0.001
TCF12 isoform 3 (UniProt Q99081),inactive: -0.032,inactive: 0.102,inactive: -0.103,inactive: -0.121,inactive: -0.001,inactive: 0.144,inactive: 0.064,inactive: -0.002,inactive: -0.135,inactive: -0.096,inactive: 0.039
TBL1X (UniProt O60907),inactive: 0.018,inactive: -0.017,inactive: -0.069,inactive: -0.025,inactive: -0.013,inactive: 0.065,inactive: 0.027,inactive: -0.031,inactive: -0.062,inactive: -0.04,inactive: -0.019
TBC1D17 (UniProt Q9HA65),inactive: -0.032,inactive: -0.075,inactive: -0.051,inactive: -0.147,inactive: 0.004,inactive: 0.054,inactive: 0.131,inactive: 0.053,,inactive: -0.09,inactive: -0.009
TGDS (UniProt O95455),inactive: -0.085,inactive: -0.063,inactive: -0.01,inactive: -0.046,inactive: -0.158,inactive: 0.063,,inactive: -0.01,,,
THEM4 (UniProt Q5T1C6),inactive: -0.043,inactive: -0.011,inactive: -0.044,inactive: 0.092,inactive: -0.03,inactive: -0.081,inactive: 0.01,inactive: -0.018,inactive: 0.011,inactive: -0.094,inactive: 0.026
TBL3 (UniProt Q12788),inactive: 0.07,inactive: 0.059,inactive: 0.178,inactive: 0.016,inactive: -0.062,inactive: -0.024,inactive: -0.055,inactive: 0.149,inactive: 0.075,inactive: -0.122,inactive: 0.024
TEX2 isoform 2 (UniProt Q8IWB9),inactive: -0.091,inactive: 0.155,inactive: 0.129,inactive: 0.136,inactive: -0.061,inactive: 0.035,,inactive: 0.431,inactive: 0.012,,
THG1L (UniProt Q9NWX6),inactive: -0.012,inactive: 0.006,inactive: -0.038,inactive: -0.068,inactive: -0.022,inactive: 0.042,inactive: 0.041,inactive: -0.009,inactive: -0.048,inactive: 0.005,inactive: -0.063
TKT isoform 2 (UniProt P29401),inactive: 0.008,inactive: 0.02,inactive: 0.062,inactive: 0.042,inactive: -0.01,inactive: 0.022,inactive: -0.037,inactive: -0.088,inactive: -0.019,inactive: 0.052,inactive: 0.001
TBPL1 (UniProt P62380),inactive: 0.068,inactive: -0.022,inactive: -0.084,inactive: -0.042,inactive: 0.026,inactive: 0.017,inactive: 0.108,inactive: 0.057,inactive: 0.118,inactive: -0.022,inactive: -0.014

# An excerpt of these results, tab-delimited.
Target	log2 fold change [1]	log2 fold change [2]	log2 fold change [3]	log2 fold change [4]	log2 fold change [5]	log2 fold change [6]	log2 fold change [7]	log2 fold change [8]	log2 fold change [9]	log2 fold change [10]	log2 fold change [11]
TBL1X (UniProt O60907)	inactive: 0.018	inactive: -0.017	inactive: -0.069	inactive: -0.025	inactive: -0.013	inactive: 0.065	inactive: 0.027	inactive: -0.031	inactive: -0.062	inactive: -0.04	inactive: -0.019
TBC1D17 (UniProt Q9HA65)	inactive: -0.032	inactive: -0.075	inactive: -0.051	inactive: -0.147	inactive: 0.004	inactive: 0.054	inactive: 0.131	inactive: 0.053		inactive: -0.09	inactive: -0.009

# Source: the supplement of paper PMC10849652
